{"source": "the supplement of paper PMC8728848", "binders": {"B1": {"name": "Aap lectin (Staphylococcus epidermidis) (protein)", "chain": "VNLNYSSPFMSLLSMPADSSSNNTKNTIDIPPTTVKGRDNYDFYGRVDIESNPTDLNATNLTRYNYGQPPGTTTAGAVQFKNQVSFDKDFDFNIRVANNRQSNTTGADGWGFMFSKKDGDDFLKNGGILREKGTPSAAGFRIDTGYYNNDPLDKIQKQAGQGYRGYGTFVKNDSQGNTSKVGSGTPSTDFLNYADNTTNDLDGKFHGQKLNNVNLKYNASNQTFTATYAGKTWTATLSELGLSPTDSYNFLVTSS"}}, "experiment_in_all_cases": "glycan array binding signal (z-score within array); higher = stronger binding", "settings_in_all_cases": "glycan notation: IUPAC condensed, linker removed", "key": {"Fuc(a1-2)Gal": {"molecular_target": "Fuc(a1-2)Gal", "in_short": "(§1)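 The Consortium for Functional Glycomics database supplied 3228 glycan arrays, of which those lacking an available protein sequence were dropped. The binding signal, a within-array Z-score, was averaged across arrays of the same protein sequence and across linkers. Negative scores can be read as non-binding.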"}, "Fuc(a1-2)Gal(b1-3)GalNAc": {"molecular_target": "Fuc(a1-2)Gal(b1-3)GalNAc", "in_short": "as §1"}, "[1]": {"molecular_target": "Fuc(a1-2)Gal(b1-3)GalNAc(a1-3)[Fuc(a1-2)]Gal(b1-4)Glc", "in_short": "as §1"}, "[2]": {"molecular_target": "Fuc(a1-2)Gal(b1-3)GalNAc(a1-3)[Fuc(a1-2)]Gal(b1-4)GlcNAc", "in_short": "as §1"}, "[3]": {"molecular_target": "Fuc(a1-2)Gal(b1-3)GalNAc(b1-3)Gal", "in_short": "as §1"}, "[4]": {"molecular_target": "Fuc(a1-2)Gal(b1-3)GalNAc(b1-3)Gal(a1-4)Gal(b1-4)Glc", "in_short": "as §1"}, "[5]": {"molecular_target": "Fuc(a1-2)Gal(b1-3)GalNAc(b1-4)[Neu5Ac(a2-3)]Gal(b1-4)Glc", "in_short": "as §1"}, "Fuc(a1-2)Gal(b1-3)GlcNAc": {"molecular_target": "Fuc(a1-2)Gal(b1-3)GlcNAc", "in_short": "as §1"}, "[6]": {"molecular_target": "Fuc(a1-2)Gal(b1-3)GlcNAc(b1-2)Man(a1-3)[Fuc(a1-2)Gal(b1-3)GlcNAc(b1-2)Man(a1-6)]Man(b1-4)GlcNAc(b1-4)GlcNAc", "in_short": "as §1"}, "[7]": {"molecular_target": "Fuc(a1-2)Gal(b1-3)GlcNAc(b1-2)Man(a1-3)[Fuc(a1-2)Gal(b1-3)GlcNAc(b1-2)Man(a1-6)]Man(b1-4)GlcNAc(b1-4)[Fuc(a1-6)]GlcNAc", "in_short": "as §1"}, "[8]": {"molecular_target": "Fuc(a1-2)Gal(b1-3)GlcNAc(b1-3)Gal(b1-4)Glc", "in_short": "as §1"}, "[9]": {"molecular_target": "Fuc(a1-2)Gal(b1-3)GlcNAc(b1-3)GalNAc", "in_short": "as §1"}, "[10]": {"molecular_target": "Fuc(a1-2)Gal(b1-3)GlcNAc(b1-3)[Fuc(a1-2)Gal(b1-3)GlcNAc(b1-6)]GalNAc", "in_short": "as §1"}, "[11]": {"molecular_target": "Fuc(a1-2)Gal(b1-3)GlcNAc(b1-3)[Gal(b1-4)GlcNAc(b1-6)]Gal(b1-4)Glc", "in_short": "as §1"}, "[12]": {"molecular_target": "Fuc(a1-2)Gal(b1-3)GlcNAc(b1-3)[Neu5Ac(a2-6)Gal(b1-4)GlcNAc(b1-6)]Gal(b1-4)Glc", "in_short": "as §1"}, "[13]": {"molecular_target": "Fuc(a1-2)Gal(b1-3)GlcNAc6S", "in_short": "as §1"}, "[14]": {"molecular_target": "Fuc(a1-2)Gal(b1-3)[Fuc(a1-4)]GlcNAc", "in_short": "as §1"}, "[15]": {"molecular_target": "Fuc(a1-2)Gal(b1-3)[Fuc(a1-4)]GlcNAc(b1-2)Man(a1-3)[Fuc(a1-2)Gal(b1-3)[Fuc(a1-4)]GlcNAc(b1-2)Man(a1-3)]Man(b1-4)GlcNAc(b1-4)GlcNAc", "in_short": "as §1"}, "[16]": {"molecular_target": "Fuc(a1-2)Gal(b1-3)[Fuc(a1-4)]GlcNAc(b1-2)Man(a1-3)[Fuc(a1-2)Gal(b1-3)[Fuc(a1-4)]GlcNAc(b1-2)Man(a1-6)]Man(b1-4)GlcNAc(b1-4)[Fuc(a1-6)]GlcNAc(b1-4)[Fuc(a1-6)]GlcNAc", "in_short": "as §1"}, "[17]": {"molecular_target": "Fuc(a1-2)Gal(b1-3)[Fuc(a1-4)]GlcNAc(b1-3)[Fuc(a1-3)[Gal(b1-4)]GlcNAc(b1-6)]Gal(b1-4)Glc", "in_short": "as §1"}, "[18]": {"molecular_target": "Fuc(a1-2)Gal(b1-3)[Fuc(a1-4)]GlcNAc(b1-3)[Gal(b1-4)GlcNAc(b1-6)]Gal(b1-4)Glc", "in_short": "as §1"}, "Fuc(a1-2)Gal(b1-4)Glc": {"molecular_target": "Fuc(a1-2)Gal(b1-4)Glc", "in_short": "as §1"}, "Fuc(a1-2)Gal(b1-4)Glc6S": {"molecular_target": "Fuc(a1-2)Gal(b1-4)Glc6S", "in_short": "as §1"}, "Fuc(a1-2)Gal(b1-4)GlcNAc": {"molecular_target": "Fuc(a1-2)Gal(b1-4)GlcNAc", "in_short": "as §1"}, "[19]": {"molecular_target": "Fuc(a1-2)Gal(b1-4)GlcNAc(b1-2)Man", "in_short": "as §1"}, "[20]": {"molecular_target": "Fuc(a1-2)Gal(b1-4)GlcNAc(b1-2)Man(a1-3)[Fuc(a1-2)Gal(b1-4)GlcNAc(b1-2)Man(a1-6)]Man(b1-4)GlcNAc(b1-4)GlcNAc", "in_short": "as §1"}, "[21]": {"molecular_target": "Fuc(a1-2)Gal(b1-4)GlcNAc(b1-2)Man(a1-3)[Fuc(a1-2)Gal(b1-4)GlcNAc(b1-2)Man(a1-6)]Man(b1-4)GlcNAc(b1-4)[Fuc(a1-6)]GlcNAc", "in_short": "as §1"}, "[22]": {"molecular_target": "Fuc(a1-2)Gal(b1-4)GlcNAc(b1-2)[Fuc(a1-2)Gal(b1-4)GlcNAc(b1-4)]Man(a1-3)[Fuc(a1-2)Gal(b1-4)GlcNAc(b1-2)Man(a1-6)]Man(b1-4)GlcNAc(b1-4)GlcNAc", "in_short": "as §1"}, "[23]": {"molecular_target": "Fuc(a1-2)Gal(b1-4)GlcNAc(b1-3)Gal(b1-4)GlcNAc", "in_short": "as §1"}, "[24]": {"molecular_target": "Fuc(a1-2)Gal(b1-4)GlcNAc(b1-3)Gal(b1-4)GlcNAc(b1-2)Man(a1-3)[Fuc(a1-2)Gal(b1-4)GlcNAc(b1-3)Gal(b1-4)GlcNAc(b1-2)Man(a1-6)]Man(b1-4)GlcNAc(b1-4)GlcNAc", "in_short": "as §1"}, "[25]": {"molecular_target": "Fuc(a1-2)Gal(b1-4)GlcNAc(b1-3)Gal(b1-4)GlcNAc(b1-3)Gal(b1-4)GlcNAc", "in_short": "as §1"}, "[26]": {"molecular_target": "Fuc(a1-2)Gal(b1-4)GlcNAc(b1-3)GalNAc", "in_short": "as §1"}, "[27]": {"molecular_target": "Fuc(a1-2)Gal(b1-4)GlcNAc(b1-3)[Fuc(a1-2)Gal(b1-4)GlcNAc(b1-6)]GalNAc", "in_short": "as §1"}, "[28]": {"molecular_target": "Fuc(a1-2)Gal(b1-4)GlcNAc(b1-3)[Fuc(a1-3)[Gal(b1-4)]GlcNAc(b1-6)]Gal(b1-4)Glc", "in_short": "as §1"}, "[29]": {"molecular_target": "Fuc(a1-2)Gal(b1-4)GlcNAc(b1-6)GalNAc", "in_short": "as §1"}, "[30]": {"molecular_target": "Fuc(a1-2)Gal(b1-4)GlcNAc6S", "in_short": "as §1"}, "[31]": {"molecular_target": "Fuc(a1-2)Gal(b1-4)[Fuc(a1-3)]GlcNAc", "in_short": "as §1"}}, "note": "Some of the results follow.", "data": [{"binder": "B1", "values": [{"measurement": "glycan array binding signal (z-score)", "setting": "Fuc(a1-2)Gal", "value": 1.06}, {"measurement": "glycan array binding signal (z-score)", "setting": "Fuc(a1-2)Gal(b1-3)GalNAc", "value": -0.871}, {"measurement": "glycan array binding signal (z-score)", "setting": "[1]", "value": -0.002}, {"measurement": "glycan array binding signal (z-score)", "setting": "[2]", "value": -0.431}, {"measurement": "glycan array binding signal (z-score)", "setting": "[3]", "value": -0.751}, {"measurement": "glycan array binding signal (z-score)", "setting": "[4]", "value": 0.358}, {"measurement": "glycan array binding signal (z-score)", "setting": "[5]", "value": -0.694}, {"measurement": "glycan array binding signal (z-score)", "setting": "Fuc(a1-2)Gal(b1-3)GlcNAc", "value": -0.737}, {"measurement": "glycan array binding signal (z-score)", "setting": "[6]", "value": 1.49}, {"measurement": "glycan array binding signal (z-score)", "setting": "[7]", "value": 2.87}, {"measurement": "glycan array binding signal (z-score)", "setting": "[8]", "value": -0.68}, {"measurement": "glycan array binding signal (z-score)", "setting": "[9]", "value": -0.829}, {"measurement": "glycan array binding signal (z-score)", "setting": "[10]", "value": 1.2}, {"measurement": "glycan array binding signal (z-score)", "setting": "[11]", "value": -0.875}, {"measurement": "glycan array binding signal (z-score)", "setting": "[12]", "value": 0.015}, {"measurement": "glycan array binding signal (z-score)", "setting": "[13]", "value": -0.08}, {"measurement": "glycan array binding signal (z-score)", "setting": "[14]", "value": -0.851}, {"measurement": "glycan array binding signal (z-score)", "setting": "[15]", "value": 1.16}, {"measurement": "glycan array binding signal (z-score)", "setting": "[16]", "value": -0.291}, {"measurement": "glycan array binding signal (z-score)", "setting": "[17]", "value": 1.1}, {"measurement": "glycan array binding signal (z-score)", "setting": "[18]", "value": 0.218}, {"measurement": "glycan array binding signal (z-score)", "setting": "Fuc(a1-2)Gal(b1-4)Glc", "value": 2.43}, {"measurement": "glycan array binding signal (z-score)", "setting": "Fuc(a1-2)Gal(b1-4)Glc6S", "value": 0.519}, {"measurement": "glycan array binding signal (z-score)", "setting": "Fuc(a1-2)Gal(b1-4)GlcNAc", "value": -0.831}, {"measurement": "glycan array binding signal (z-score)", "setting": "[19]", "value": -0.085}, {"measurement": "glycan array binding signal (z-score)", "setting": "[20]", "value": -0.352}, {"measurement": "glycan array binding signal (z-score)", "setting": "[21]", "value": -0.829}, {"measurement": "glycan array binding signal (z-score)", "setting": "[22]", "value": -0.732}, {"measurement": "glycan array binding signal (z-score)", "setting": "[23]", "value": -0.688}, {"measurement": "glycan array binding signal (z-score)", "setting": "[24]", "value": 0.261}, {"measurement": "glycan array binding signal (z-score)", "setting": "[25]", "value": -0.893}, {"measurement": "glycan array binding signal (z-score)", "setting": "[26]", "value": 1.36}, {"measurement": "glycan array binding signal (z-score)", "setting": "[27]", "value": 0.749}, {"measurement": "glycan array binding signal (z-score)", "setting": "[28]", "value": -0.878}, {"measurement": "glycan array binding signal (z-score)", "setting": "[29]", "value": 0.471}, {"measurement": "glycan array binding signal (z-score)", "setting": "[30]", "value": -0.682}, {"measurement": "glycan array binding signal (z-score)", "setting": "[31]", "value": -0.795}]}]}
